This note sets out measurements from publication PMC10036822.

Protein sequences, listed by entry. Tags and fused reporters are not part of them.
UniProt P42224: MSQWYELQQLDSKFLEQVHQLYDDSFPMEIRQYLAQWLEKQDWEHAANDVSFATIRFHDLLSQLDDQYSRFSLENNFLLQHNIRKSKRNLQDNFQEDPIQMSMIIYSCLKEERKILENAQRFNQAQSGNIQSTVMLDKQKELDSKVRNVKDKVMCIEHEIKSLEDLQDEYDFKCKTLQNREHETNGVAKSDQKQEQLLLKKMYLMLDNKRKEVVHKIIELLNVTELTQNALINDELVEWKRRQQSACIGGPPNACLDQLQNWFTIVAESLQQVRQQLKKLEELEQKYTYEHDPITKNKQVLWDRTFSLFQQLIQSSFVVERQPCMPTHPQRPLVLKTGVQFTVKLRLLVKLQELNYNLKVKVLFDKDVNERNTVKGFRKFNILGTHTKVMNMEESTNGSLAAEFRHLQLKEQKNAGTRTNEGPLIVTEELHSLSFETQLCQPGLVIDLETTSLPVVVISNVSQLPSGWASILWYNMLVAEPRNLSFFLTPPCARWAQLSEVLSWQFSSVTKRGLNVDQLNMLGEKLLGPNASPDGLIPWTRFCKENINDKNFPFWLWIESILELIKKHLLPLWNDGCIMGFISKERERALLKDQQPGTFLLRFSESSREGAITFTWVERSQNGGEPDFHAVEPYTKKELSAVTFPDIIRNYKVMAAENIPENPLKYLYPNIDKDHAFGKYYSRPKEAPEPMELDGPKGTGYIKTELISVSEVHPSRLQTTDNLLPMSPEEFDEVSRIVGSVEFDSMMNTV

The target in the experiment is signal transducer and activator of the transcription (STAT)1 (UniProt P42224). In words: co-IP; HEK293T cells transfected with the indicated plasmids for 48-72 h (MKRN2 or STAT1 overexpressed); lysed in IP buffer (Tris, EDTA, NaCl, glycerol, NP40), antibodies at 4°C overnight, agarose beads 4-6 h at 4°C; blot.

No constants are given. Whether binding was seen depends on the method and setting. In cells and extracts the contact can be indirect. Some results given as binding are weak or reduced against the parent protein; the word gives no strength.

B1: Makorin-2 (protein, UniProt Q9H000 1-416)
chain: MSTKQITCRYFMHGVCREGSQCLFSHDLANSKPSTICKYYQKGYCAYGTRCRYDHTRPSAAAGGAVGTMAHSVPSPAFHSPHPPSEVTASIVKTNSHEPGKREKRTLVLRDRNLSGMAERKTQPSMVSNPGSCSDPQPSPEMKPHSYLDAIRSGLDDVEASSSYSNEQQLCPYAAAGECRFGDACVYLHGEVCEICRLQVLHPFDPEQRKAHEKICMLTFEHEMEKAFAFQASQDKVCSICMEVILEKASASERRFGILSNCNHTYCLSCIRQWRCAKQFENPIIKSCPECRVISEFVIPSVYWVEDQNKKNELIEAFKQGMGKKACKYFEQGKGTCPFGSKCLYRHAYPDGRLAEPEKPRKQLSSQGTVRFFNSVRLWDFIENRESRHVPNNEDVDMTELGDLFMHLSGVESSEP
B1: the binding entry is listed as “binds”.
